# From patent US10030050 (dated 2018)
# Ends that are not written are not given here.
# Assay: general procedure: Fmoc solid-phase peptide synthesis; chloro trityl chloride resin (CTL resin, Nova Biochem Cat No. 01-64-0021); HoBt/Bop/DIEA
# Conditions: whole synthesis; for crude yield: scale of the general procedure 700 mg resin
Substance,crude mass [g],crude yield [%]
SPVEFLR,0.80,88.8
ITLQEIIRT,,86.4
ACIHTLSLLC (cysteine pairing not given here),,83.2
